Experimental findings from PMC3566071 are described below.

The chains behind the UniProt entries cited, without tags or fusion partners.
UniProt P09874: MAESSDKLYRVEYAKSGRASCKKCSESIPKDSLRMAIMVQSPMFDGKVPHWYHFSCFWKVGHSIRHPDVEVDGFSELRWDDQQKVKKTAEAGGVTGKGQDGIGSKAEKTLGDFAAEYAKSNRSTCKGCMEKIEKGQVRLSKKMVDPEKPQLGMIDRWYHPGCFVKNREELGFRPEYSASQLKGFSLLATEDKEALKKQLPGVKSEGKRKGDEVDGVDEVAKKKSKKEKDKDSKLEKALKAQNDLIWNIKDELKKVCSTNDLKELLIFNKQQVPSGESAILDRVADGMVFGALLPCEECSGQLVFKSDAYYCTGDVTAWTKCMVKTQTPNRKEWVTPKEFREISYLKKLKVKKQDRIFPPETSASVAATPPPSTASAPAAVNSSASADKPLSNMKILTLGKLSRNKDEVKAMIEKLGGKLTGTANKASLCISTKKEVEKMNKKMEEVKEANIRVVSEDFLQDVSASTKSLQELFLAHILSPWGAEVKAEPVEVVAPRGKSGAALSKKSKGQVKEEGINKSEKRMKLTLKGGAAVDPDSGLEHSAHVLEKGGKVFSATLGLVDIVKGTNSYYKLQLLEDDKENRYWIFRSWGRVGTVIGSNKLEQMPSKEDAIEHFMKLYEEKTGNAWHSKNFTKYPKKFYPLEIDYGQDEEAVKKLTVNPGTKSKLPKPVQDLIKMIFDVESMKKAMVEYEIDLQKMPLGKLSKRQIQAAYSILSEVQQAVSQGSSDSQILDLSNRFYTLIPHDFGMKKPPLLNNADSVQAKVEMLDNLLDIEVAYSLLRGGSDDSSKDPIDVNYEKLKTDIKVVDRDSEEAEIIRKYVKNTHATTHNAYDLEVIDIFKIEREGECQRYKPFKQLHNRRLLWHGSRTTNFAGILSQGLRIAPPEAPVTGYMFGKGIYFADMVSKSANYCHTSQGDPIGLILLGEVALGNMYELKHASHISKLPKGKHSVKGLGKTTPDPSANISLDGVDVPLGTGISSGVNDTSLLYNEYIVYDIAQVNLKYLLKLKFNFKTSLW

Results are given in words; binding and its absence hold for the method and conditions named. For part of these data: Binding seen in cells or lysates may run through a third protein. Some results given as binding are weak or reduced against the parent protein; the word gives no strength.

Assay [1] deals with T1, biotinylated recombinant full-length Ets-1 protein (human) (UniProt P14921).
T1 sequence (chain, biotin (position not stated)): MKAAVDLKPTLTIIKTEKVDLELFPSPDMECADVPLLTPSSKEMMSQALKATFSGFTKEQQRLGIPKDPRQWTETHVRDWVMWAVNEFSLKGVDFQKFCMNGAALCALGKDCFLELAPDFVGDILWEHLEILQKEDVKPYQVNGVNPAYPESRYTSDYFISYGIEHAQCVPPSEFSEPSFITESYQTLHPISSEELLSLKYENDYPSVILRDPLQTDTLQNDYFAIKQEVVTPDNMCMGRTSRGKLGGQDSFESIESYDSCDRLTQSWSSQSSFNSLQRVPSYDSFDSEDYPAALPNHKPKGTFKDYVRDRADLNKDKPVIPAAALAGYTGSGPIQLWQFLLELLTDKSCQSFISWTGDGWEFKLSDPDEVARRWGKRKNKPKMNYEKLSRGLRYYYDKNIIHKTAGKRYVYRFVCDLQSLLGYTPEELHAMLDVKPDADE
The assay can be described thus: pull-down; biotinylated full-length Ets-1 (5 ug) or Ets-1 p27 (2.5 ug) on streptavidin sepharose beads, incubated 1 h at 4 C with recombinant PARP-1 (Trevigen); Western blot; both purified.

For assay [2], the target named is T1, biotinylated recombinant full-length Ets-1 protein (human). The assay can be described thus: pull-down; biotinylated Ets-1 (50 ug) on streptavidin sepharose beads, incubated 1 h at 4 C with 1.5 mg pre-cleared MDA-MB-231 nuclear extract, treated or not with DNase I, 150 mM NaCl; bound proteins seen by SDS-PAGE with colloidal blue, band identified by MALDI-TOF, confirmed by Western blot (H-250); only the target purified. A general note: Immunoblotting shows a protein as a band on a membrane.

The target in assay [3] is T2, Ets-1, endogenous (human (endogenous in MDA-MB-231 and MG63)) (UniProt P14921).
T2 sequence: T1 sequence (chain, biotin (position not stated))
In words: co-IP; nuclear extracts of MDA-MB-231 or MG-63 cells (1 mg), DNase I treated, 150 mM NaCl; C-20 anti-Ets-1 or H-250 anti-PARP-1 agarose conjugate overnight at 4 C; Western blot.

For “recombinant human PARP-1 enzyme, high specific activity grade (from UniProt P09874 1-1014)”, the binding result in assay [1] is given as “binds”.
For “poly(ADP-ribose) polymerase-1 (PARP-1), endogenous (from UniProt P09874 1-1014) (enzyme)”, the binding result in assay [2] and in assay [3] was “binds” each time.
